Reference: the supplement of paper PMC10849652
The list shows a part of the results.

The chains behind the UniProt entries cited, without tags or fusion partners. Where a name states a change or a piece, a line headed by the entry shows the natural chain unless it says otherwise.
UniProt Q8WUK0: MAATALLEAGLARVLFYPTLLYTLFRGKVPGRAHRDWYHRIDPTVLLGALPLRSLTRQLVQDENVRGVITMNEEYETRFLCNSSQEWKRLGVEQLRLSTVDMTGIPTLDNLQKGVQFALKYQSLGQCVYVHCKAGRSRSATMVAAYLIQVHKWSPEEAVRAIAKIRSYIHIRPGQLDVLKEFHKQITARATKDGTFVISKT
UniProt Q9Y606: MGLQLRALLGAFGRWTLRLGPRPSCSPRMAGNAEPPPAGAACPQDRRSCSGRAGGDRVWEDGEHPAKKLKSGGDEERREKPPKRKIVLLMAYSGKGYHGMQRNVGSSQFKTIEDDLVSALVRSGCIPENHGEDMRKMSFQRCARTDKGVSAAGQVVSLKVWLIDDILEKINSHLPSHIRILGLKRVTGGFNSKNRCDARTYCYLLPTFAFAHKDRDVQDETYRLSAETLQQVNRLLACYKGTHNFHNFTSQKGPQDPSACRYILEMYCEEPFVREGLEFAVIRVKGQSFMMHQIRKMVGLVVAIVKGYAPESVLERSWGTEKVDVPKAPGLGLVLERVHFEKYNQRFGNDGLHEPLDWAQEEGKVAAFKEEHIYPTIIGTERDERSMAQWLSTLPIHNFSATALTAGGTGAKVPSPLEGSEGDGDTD
UniProt P62333, whole entry, looked up: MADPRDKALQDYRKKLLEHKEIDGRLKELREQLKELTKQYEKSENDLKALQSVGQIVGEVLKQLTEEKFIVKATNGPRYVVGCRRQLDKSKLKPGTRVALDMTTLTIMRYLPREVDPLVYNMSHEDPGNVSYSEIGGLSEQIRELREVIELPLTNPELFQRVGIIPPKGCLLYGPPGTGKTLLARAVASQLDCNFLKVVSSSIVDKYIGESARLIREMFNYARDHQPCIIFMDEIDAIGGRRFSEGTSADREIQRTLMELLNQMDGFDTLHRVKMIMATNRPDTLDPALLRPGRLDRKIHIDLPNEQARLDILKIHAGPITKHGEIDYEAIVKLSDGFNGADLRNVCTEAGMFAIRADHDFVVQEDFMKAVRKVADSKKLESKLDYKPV
UniProt P06454: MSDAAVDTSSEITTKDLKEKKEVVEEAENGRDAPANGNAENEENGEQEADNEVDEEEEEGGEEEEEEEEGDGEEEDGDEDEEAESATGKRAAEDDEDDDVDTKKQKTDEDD
UniProt Q8WXF1: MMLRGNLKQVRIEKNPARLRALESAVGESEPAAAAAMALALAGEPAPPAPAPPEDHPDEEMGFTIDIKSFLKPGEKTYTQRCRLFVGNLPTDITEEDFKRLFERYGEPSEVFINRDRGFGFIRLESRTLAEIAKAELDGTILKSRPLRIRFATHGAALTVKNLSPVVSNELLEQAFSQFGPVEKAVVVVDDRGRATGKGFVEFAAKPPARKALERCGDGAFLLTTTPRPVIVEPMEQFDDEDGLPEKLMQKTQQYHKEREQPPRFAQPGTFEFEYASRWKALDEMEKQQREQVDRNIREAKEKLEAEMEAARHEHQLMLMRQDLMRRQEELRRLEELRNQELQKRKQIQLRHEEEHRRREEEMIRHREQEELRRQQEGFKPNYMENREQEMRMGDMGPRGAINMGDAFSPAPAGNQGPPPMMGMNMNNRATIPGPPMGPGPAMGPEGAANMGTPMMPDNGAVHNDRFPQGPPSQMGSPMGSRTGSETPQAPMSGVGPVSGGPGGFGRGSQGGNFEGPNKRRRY
UniProt P18031: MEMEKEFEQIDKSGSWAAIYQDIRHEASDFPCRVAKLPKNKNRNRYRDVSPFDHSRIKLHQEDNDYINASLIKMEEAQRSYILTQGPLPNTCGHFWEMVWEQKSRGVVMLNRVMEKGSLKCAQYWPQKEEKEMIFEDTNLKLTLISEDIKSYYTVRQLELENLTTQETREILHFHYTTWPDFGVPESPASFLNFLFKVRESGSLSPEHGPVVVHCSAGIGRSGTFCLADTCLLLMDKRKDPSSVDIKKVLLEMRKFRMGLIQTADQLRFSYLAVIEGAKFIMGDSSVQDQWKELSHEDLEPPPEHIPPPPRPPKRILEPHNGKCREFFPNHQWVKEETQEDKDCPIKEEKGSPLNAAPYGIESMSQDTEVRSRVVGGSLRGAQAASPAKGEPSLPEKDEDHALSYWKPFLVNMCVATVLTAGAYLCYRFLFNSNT
UniProt Q86TP1: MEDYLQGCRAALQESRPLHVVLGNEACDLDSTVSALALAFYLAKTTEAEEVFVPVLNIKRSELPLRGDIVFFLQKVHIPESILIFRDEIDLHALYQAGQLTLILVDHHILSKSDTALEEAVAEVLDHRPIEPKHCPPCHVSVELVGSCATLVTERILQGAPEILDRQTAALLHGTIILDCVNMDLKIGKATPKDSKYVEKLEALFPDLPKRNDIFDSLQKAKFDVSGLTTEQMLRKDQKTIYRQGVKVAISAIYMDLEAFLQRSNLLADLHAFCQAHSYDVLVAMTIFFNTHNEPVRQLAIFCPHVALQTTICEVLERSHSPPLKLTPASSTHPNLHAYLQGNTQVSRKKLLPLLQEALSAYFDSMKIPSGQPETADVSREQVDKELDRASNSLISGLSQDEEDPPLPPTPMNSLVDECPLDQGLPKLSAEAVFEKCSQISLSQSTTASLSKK
UniProt P43686, whole entry, looked up: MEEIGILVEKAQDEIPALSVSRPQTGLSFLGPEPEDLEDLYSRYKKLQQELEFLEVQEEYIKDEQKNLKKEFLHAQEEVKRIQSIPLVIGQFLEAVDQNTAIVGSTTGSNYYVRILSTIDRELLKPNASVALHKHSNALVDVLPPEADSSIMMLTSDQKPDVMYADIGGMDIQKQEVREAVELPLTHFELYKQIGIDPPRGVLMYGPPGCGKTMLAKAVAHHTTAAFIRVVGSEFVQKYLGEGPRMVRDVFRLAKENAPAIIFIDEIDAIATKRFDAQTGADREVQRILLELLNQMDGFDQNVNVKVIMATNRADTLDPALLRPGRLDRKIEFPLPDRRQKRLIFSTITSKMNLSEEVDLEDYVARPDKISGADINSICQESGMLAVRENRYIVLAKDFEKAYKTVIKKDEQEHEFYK
UniProt O00233: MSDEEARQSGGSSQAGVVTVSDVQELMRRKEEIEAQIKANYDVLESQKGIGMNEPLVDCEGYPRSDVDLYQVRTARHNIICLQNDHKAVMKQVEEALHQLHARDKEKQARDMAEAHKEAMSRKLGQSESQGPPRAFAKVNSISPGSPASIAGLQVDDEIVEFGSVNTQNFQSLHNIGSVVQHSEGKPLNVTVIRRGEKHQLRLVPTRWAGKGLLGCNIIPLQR
UniProt Q9BRQ0: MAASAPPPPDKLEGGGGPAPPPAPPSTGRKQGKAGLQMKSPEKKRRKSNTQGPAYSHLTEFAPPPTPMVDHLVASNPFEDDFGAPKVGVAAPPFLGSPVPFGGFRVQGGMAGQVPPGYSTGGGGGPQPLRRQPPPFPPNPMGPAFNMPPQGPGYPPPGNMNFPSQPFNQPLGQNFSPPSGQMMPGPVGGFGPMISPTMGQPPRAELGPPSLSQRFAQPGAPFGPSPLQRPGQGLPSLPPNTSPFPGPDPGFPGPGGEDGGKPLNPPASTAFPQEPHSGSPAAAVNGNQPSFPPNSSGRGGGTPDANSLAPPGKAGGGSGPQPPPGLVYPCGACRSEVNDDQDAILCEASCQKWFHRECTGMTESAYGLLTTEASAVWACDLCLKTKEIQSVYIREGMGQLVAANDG
UniProt Q9Y3T6: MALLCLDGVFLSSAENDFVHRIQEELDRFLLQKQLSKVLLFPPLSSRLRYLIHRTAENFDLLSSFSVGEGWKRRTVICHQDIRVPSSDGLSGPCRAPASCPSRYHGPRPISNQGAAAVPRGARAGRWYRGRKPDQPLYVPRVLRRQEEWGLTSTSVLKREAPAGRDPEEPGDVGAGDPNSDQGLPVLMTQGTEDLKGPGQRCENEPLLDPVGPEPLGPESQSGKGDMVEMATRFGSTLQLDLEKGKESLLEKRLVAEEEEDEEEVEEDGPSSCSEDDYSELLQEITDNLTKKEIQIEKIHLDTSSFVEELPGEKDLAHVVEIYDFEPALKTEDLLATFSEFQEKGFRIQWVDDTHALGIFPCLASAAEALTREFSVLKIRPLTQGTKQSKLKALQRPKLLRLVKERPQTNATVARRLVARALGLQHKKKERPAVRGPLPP
UniProt P17980, whole entry, looked up: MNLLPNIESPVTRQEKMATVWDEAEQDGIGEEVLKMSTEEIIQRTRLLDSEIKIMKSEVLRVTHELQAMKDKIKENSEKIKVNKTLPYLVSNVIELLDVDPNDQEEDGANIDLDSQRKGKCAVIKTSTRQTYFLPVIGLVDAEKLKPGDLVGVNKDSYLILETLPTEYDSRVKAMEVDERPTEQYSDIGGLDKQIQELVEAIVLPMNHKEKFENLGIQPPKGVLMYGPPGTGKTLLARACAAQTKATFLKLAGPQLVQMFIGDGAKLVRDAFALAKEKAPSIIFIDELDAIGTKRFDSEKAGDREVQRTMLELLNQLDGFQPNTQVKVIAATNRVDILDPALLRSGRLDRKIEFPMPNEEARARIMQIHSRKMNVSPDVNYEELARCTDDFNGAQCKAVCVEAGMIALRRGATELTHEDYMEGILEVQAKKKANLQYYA
UniProt Q16401: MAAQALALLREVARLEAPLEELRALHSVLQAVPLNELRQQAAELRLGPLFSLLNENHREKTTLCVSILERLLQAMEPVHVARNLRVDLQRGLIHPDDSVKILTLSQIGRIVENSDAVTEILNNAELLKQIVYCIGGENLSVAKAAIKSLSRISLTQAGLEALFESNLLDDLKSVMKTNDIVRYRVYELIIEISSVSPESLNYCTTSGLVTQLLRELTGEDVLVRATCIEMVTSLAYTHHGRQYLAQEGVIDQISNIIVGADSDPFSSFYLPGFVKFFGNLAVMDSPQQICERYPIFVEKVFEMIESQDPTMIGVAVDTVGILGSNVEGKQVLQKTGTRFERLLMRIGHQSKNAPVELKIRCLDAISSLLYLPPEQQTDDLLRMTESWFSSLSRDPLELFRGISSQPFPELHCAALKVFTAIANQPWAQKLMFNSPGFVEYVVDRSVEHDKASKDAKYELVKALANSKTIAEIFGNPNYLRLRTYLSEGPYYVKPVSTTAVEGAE
UniProt Q99460, whole entry, looked up: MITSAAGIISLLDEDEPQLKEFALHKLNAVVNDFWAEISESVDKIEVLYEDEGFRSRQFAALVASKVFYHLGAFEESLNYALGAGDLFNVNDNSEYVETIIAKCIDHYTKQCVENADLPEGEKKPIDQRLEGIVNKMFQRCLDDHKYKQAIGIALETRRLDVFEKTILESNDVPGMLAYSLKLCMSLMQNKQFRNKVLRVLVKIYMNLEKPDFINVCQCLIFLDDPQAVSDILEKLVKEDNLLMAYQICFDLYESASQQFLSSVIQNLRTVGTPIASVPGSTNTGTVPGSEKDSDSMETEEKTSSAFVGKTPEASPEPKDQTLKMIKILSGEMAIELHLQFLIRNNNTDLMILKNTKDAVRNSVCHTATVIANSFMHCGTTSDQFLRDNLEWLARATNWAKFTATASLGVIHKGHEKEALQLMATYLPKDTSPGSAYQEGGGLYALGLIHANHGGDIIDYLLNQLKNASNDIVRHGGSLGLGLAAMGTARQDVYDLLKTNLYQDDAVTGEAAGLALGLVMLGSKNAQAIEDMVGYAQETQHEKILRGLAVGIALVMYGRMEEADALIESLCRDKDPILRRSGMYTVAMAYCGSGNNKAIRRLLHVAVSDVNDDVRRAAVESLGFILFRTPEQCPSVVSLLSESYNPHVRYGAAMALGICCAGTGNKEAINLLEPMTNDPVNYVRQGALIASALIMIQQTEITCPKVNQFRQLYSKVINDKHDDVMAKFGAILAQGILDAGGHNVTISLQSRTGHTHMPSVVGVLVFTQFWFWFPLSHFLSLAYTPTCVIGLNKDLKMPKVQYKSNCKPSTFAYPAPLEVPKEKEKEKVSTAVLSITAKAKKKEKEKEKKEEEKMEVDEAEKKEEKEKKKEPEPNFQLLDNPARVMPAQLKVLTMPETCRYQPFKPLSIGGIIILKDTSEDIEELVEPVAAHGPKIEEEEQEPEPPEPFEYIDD
UniProt O95997: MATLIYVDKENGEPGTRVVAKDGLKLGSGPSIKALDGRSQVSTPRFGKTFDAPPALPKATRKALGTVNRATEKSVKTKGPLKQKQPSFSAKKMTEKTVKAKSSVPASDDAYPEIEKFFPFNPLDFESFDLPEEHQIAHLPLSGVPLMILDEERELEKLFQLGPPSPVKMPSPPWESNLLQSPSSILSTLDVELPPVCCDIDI
UniProt Q8N8N7: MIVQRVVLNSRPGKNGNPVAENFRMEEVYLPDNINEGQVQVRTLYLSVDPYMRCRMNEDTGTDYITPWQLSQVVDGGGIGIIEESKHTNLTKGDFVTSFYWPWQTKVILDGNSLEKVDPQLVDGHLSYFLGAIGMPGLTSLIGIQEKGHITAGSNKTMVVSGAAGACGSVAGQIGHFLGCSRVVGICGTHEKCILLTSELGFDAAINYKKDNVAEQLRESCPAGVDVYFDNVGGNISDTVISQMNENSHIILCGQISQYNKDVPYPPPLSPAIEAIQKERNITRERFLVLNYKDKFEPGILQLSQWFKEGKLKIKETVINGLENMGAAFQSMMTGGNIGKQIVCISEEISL

Columns and labels:
Assay in all cases: log2 fold change, soluble protein after heating vs DMSO (PISA); higher = thermal stabilisation; K562 cells, 10 uM, 30 min; active = over 0.2 and 3.5 SD of the protein, either way, in both replicates (recomputed)
[1] = compound: CS(=O)(=O)c1ccc(-c2cnc(N)c(C(=O)Nc3ccccc3)n2)cc1
Procedure, shortened: (§1)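 Aliquots of K562 cells (2×10^6 cells/mL) treated with 10 μM compound for 30 min were heated for 3 min over 48°C-58°C. After pooling and extraction in PBS with 0.5% NP-40 at 4°C, soluble protein from a 21,000xg, 90 min spin was quantified by TMTpro 16plex LC-MS/MS with channel sums equalised. Thermal stability is expressed against control samples, from duplicates, as a log2 fold change.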

crizotinib = compound: C[C@@H](Oc1cc(-c2cnn(C3CCNCC3)c2)cnc1N)c1c(Cl)ccc(F)c1Cl [crizotinib]
Procedure, shortened: as §1

[2] = compound: C[C@@H]1COCCN1C2=NC(=NC(=C2)C3(CC3)S(=O)(=O)C)C4=C5C=CNC5=CC=C4
Procedure, shortened: as §1

[3] = compound: C[C@H](C1=CC=C(C=C1)C(=O)NC2=C3C=CNC3=NC=C2)N
Procedure, shortened: as §1

gandotinib = compound: Cc1cc(Nc2cc(CN3CCOCC3)c3nc(C)c(Cc4ccc(Cl)cc4F)n3n2)n[nH]1 [gandotinib]
Procedure, shortened: as §1

[4] = compound: Cc1cc(SCc2sc(-c3ccc(C(F)(F)F)cc3)nc2C)ccc1OCC(=O)O
Procedure, shortened: as §1

doramapimod = compound: Cc1ccc(-n2nc(C(C)(C)C)cc2NC(=O)Nc2ccc(OCCN3CCOCC3)c3ccccc23)cc1 [doramapimod]
Procedure, shortened: as §1

ispinesib = compound: Cc1ccc(C(=O)N(CCCN)[C@@H](c2nc3cc(Cl)ccc3c(=O)n2Cc2ccccc2)C(C)C)cc1 [ispinesib]
Procedure, shortened: as §1

tozasertib = compound: Cc1cc(Nc2cc(N3CCN(C)CC3)nc(Sc3ccc(NC(=O)C4CC4)cc3)n2)n[nH]1 [tozasertib]
Procedure, shortened: as §1

duvelisib = compound: C[C@H](Nc1ncnc2nc[nH]c12)c1cc2cccc(Cl)c2c(=O)n1-c1ccccc1 [duvelisib]
Procedure, shortened: as §1

| Target | log2 fold change [1] | log2 fold change (crizotinib) | log2 fold change [2] | log2 fold change [3] | log2 fold change (gandotinib) | log2 fold change [4] | log2 fold change (doramapimod) | log2 fold change (ispinesib) | log2 fold change (tozasertib) | log2 fold change (duvelisib) |
| --- | --- | --- | --- | --- | --- | --- | --- | --- | --- | --- |
| PTPMT1 (UniProt Q8WUK0) | inactive: 0.086 | active: -0.546 | inactive: 0.039 | inactive: -0.026 | inactive: -0.125 | inactive: 0.109 | inactive: -0.036 | active: -0.429 | – | – |
| PUS1 (UniProt Q9Y606) | inactive: 0.277 | inactive: -0.057 | inactive: -0.079 | inactive: 0.058 | inactive: -0.006 | – | inactive: 0.265 | inactive: -0.242 | inactive: -0.143 | – |
| PSMC6 (UniProt P62333) | inactive: 0.032 | inactive: 0.022 | inactive: -0.047 | inactive: 0.116 | inactive: 0.054 | inactive: -0.002 | inactive: 0.021 | inactive: 0.007 | – | – |
| PTMA (UniProt P06454) | inactive: -0.041 | inactive: -0.302 | inactive: -0.155 | inactive: -0.034 | inactive: 0.059 | inactive: -0.042 | inactive: 0.072 | inactive: 0.199 | – | – |
| PSEN1 (UniProt P49768) | inactive: 0.006 | inactive: -0.076 | inactive: 0.1 | inactive: -0.004 | – | inactive: 0.001 | inactive: 0.012 | inactive: -0.061 | inactive: -0.012 | inactive: 0.057 |
| PSMC1 (UniProt P62191) | inactive: 0.011 | inactive: 0.023 | inactive: -0.072 | inactive: 0.073 | inactive: 0.06 | inactive: 0.01 | inactive: 0.033 | inactive: -0.036 | – | – |
| PSPC1 (UniProt Q8WXF1) | inactive: -0.068 | inactive: 0.076 | inactive: -0.044 | inactive: 0.088 | inactive: -0.09 | inactive: 0.04 | inactive: -0.028 | inactive: -0.217 | – | – |
| PTPN1 (UniProt P18031) | inactive: 0.012 | inactive: -0.091 | inactive: -0.033 | inactive: 0.232 | inactive: -0.042 | inactive: 0.145 | inactive: 0.108 | inactive: -0.086 | inactive: 0.052 | inactive: -0.03 |
| PRUNE1 (UniProt Q86TP1) | inactive: -0.011 | inactive: -0.064 | inactive: -0.002 | inactive: -0.026 | inactive: -0.071 | inactive: 0.056 | inactive: 0.008 | inactive: -0.018 | – | – |
| PSMC4 (UniProt P43686) | inactive: 0 | inactive: 0.007 | inactive: -0.056 | inactive: 0.06 | inactive: -0.011 | inactive: 0.001 | inactive: 0.02 | inactive: -0.02 | – | – |
| PSMA4 (UniProt P25789) | inactive: -0.022 | inactive: 0.042 | inactive: -0.013 | inactive: 0.073 | inactive: 0.065 | inactive: -0.027 | inactive: 0.017 | inactive: 0.012 | inactive: 0.024 | inactive: -0.046 |
| PYGL (UniProt P06737) | inactive: -0.122 | inactive: 0.003 | inactive: 0.026 | inactive: -0.019 | inactive: 0.013 | inactive: -0.023 | inactive: 0.001 | inactive: 0.015 | – | – |
| PTK2 (UniProt Q05397) | inactive: 0.013 | inactive: 0.119 | inactive: 0.076 | inactive: -0.037 | inactive: 0.074 | inactive: -0.019 | – | inactive: 0.013 | inactive: -0.018 | inactive: 0.041 |
| QKI (UniProt Q96PU8) | inactive: -0.057 | inactive: 0.075 | inactive: 0.046 | inactive: -0.079 | inactive: -0.093 | inactive: 0.034 | inactive: 0 | inactive: -0.034 | – | – |
| PSMD9 (UniProt O00233) | inactive: -0.041 | inactive: -0.069 | inactive: 0.022 | inactive: -0.059 | inactive: -0.018 | inactive: -0.026 | inactive: 0.001 | inactive: 0.016 | – | – |
| PSMC5 (UniProt P62195) | inactive: 0.025 | inactive: 0.001 | inactive: -0.07 | inactive: 0.057 | inactive: 0.017 | inactive: 0.036 | inactive: 0.028 | inactive: -0.007 | – | – |

Full records, quoted from the list. Order of values: log2 fold change [1]	log2 fold change (crizotinib)	log2 fold change [2]	log2 fold change [3]	log2 fold change (gandotinib)	log2 fold change [4]	log2 fold change (doramapimod)	log2 fold change (ispinesib)	log2 fold change (tozasertib)	log2 fold change (duvelisib)
PSMC1 (UniProt P62191) is entered as inactive: 0.011	inactive: 0.023	inactive: -0.072	inactive: 0.073	inactive: 0.06	inactive: 0.01	inactive: 0.033	inactive: -0.036	–	–
PSPC1 (UniProt Q8WXF1) is entered as inactive: -0.068	inactive: 0.076	inactive: -0.044	inactive: 0.088	inactive: -0.09	inactive: 0.04	inactive: -0.028	inactive: -0.217	–	–

(list continues)

| Target | log2 fold change [1] | log2 fold change (crizotinib) | log2 fold change [2] | log2 fold change [3] | log2 fold change (gandotinib) | log2 fold change [4] | log2 fold change (doramapimod) | log2 fold change (ispinesib) | log2 fold change (tozasertib) | log2 fold change (duvelisib) |
| --- | --- | --- | --- | --- | --- | --- | --- | --- | --- | --- |
| PURA (UniProt Q00577) | inactive: -0.064 | inactive: 0.03 | inactive: -0.44 | inactive: 0.287 | inactive: 0.334 | inactive: -0.012 | inactive: 0.063 | inactive: -0.143 | – | – |
| PSMC3 (UniProt E9PLG2) | inactive: 0.206 | inactive: 0.168 | inactive: 0.101 | – | – | inactive: -0.101 | inactive: -0.058 | – | – | – |
| PYGO2 (UniProt Q9BRQ0) | inactive: 0.303 | inactive: 0.077 | inactive: -0.122 | – | inactive: 0.082 | – | inactive: 0.013 | inactive: -0.118 | – | – |
| R3HCC1 (UniProt Q9Y3T6) | inactive: 0.083 | inactive: -0.021 | – | inactive: 0.009 | inactive: 0.076 | – | inactive: 0.019 | inactive: 0.022 | inactive: 0.061 | – |
| PSMC3 (UniProt P17980) | inactive: 0.002 | inactive: 0.012 | inactive: -0.098 | inactive: 0.067 | inactive: 0.027 | inactive: 0.011 | inactive: 0.017 | inactive: -0.024 | – | – |
| PSMD4 (UniProt Q5VWC4) | inactive: -0.07 | inactive: 0.033 | inactive: 0 | inactive: 0.125 | inactive: -0.027 | – | inactive: 0.019 | – | – | – |
| PSMB2, A0A087WVV1 | inactive: -0.179 | inactive: 0.064 | – | – | inactive: -0.106 | inactive: 0.027 | inactive: -0.054 | inactive: 0.029 | – | inactive: -0.063 |
| PSMA7 isoform 2 (UniProt O14818) | inactive: 0.13 | inactive: 0.208 | inactive: -0.056 | inactive: 0.291 | – | – | inactive: 0 | – | inactive: -0.085 | – |
| PSMD5 (UniProt Q16401) | inactive: 0.008 | inactive: 0.006 | inactive: 0.046 | inactive: -0.064 | inactive: -0.051 | inactive: -0.013 | inactive: -0.03 | inactive: 0.03 | – | – |
| QRICH1 (UniProt Q2TAL8) | inactive: -0.01 | inactive: -0.2 | inactive: 0.07 | inactive: 0.016 | – | inactive: 0.014 | inactive: -0.077 | inactive: 0.006 | – | – |
| PTDSS1 (UniProt P48651) | inactive: -0.029 | inactive: -0.141 | inactive: -0.05 | inactive: 0.209 | inactive: -0.039 | inactive: 0.105 | inactive: 0.151 | inactive: -0.326 | – | – |
| PSMD2 (UniProt Q13200) | inactive: 0.017 | inactive: 0.019 | inactive: -0.063 | inactive: 0.075 | inactive: 0.015 | inactive: 0.004 | inactive: 0.021 | inactive: -0.017 | – | – |
| PSMB4 (UniProt P28070) | inactive: 0.014 | inactive: 0.03 | inactive: -0.09 | inactive: 0.064 | inactive: 0.08 | inactive: -0.018 | inactive: 0.021 | inactive: 0.015 | – | – |
| PSMD1 (UniProt Q99460) | inactive: -0.009 | inactive: -0.002 | inactive: -0.075 | inactive: 0.047 | inactive: 0 | inactive: 0.017 | inactive: 0.036 | inactive: 0.048 | – | – |
| PTTG1 (UniProt O95997) | inactive: -0.093 | inactive: -0.012 | inactive: -0.085 | inactive: -0.044 | inactive: -0.108 | inactive: 0.021 | inactive: 0.076 | inactive: -0.034 | – | – |
| PTGR2 (UniProt Q8N8N7) | inactive: 0.097 | inactive: -0.075 | inactive: 0.045 | inactive: 0.112 | inactive: 0.192 | inactive: -0.185 | inactive: 0.223 | inactive: 0.013 | – | – |
